Experimental data reported in the supplement of paper PMC10060354, “Discovery of a small molecule ligand of FRS2 that inhibits invasion and tumor growth” (Cellular Oncology, 2022).

The chains behind the UniProt entries cited, without tags or fusion partners. Where a name states a change or a piece, a line headed by the entry shows the natural chain unless it says otherwise.
UniProt O94817, whole entry: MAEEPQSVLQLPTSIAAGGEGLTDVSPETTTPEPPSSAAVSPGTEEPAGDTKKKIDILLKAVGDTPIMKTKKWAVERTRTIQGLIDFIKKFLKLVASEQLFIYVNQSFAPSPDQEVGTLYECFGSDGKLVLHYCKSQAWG
UniProt O94906: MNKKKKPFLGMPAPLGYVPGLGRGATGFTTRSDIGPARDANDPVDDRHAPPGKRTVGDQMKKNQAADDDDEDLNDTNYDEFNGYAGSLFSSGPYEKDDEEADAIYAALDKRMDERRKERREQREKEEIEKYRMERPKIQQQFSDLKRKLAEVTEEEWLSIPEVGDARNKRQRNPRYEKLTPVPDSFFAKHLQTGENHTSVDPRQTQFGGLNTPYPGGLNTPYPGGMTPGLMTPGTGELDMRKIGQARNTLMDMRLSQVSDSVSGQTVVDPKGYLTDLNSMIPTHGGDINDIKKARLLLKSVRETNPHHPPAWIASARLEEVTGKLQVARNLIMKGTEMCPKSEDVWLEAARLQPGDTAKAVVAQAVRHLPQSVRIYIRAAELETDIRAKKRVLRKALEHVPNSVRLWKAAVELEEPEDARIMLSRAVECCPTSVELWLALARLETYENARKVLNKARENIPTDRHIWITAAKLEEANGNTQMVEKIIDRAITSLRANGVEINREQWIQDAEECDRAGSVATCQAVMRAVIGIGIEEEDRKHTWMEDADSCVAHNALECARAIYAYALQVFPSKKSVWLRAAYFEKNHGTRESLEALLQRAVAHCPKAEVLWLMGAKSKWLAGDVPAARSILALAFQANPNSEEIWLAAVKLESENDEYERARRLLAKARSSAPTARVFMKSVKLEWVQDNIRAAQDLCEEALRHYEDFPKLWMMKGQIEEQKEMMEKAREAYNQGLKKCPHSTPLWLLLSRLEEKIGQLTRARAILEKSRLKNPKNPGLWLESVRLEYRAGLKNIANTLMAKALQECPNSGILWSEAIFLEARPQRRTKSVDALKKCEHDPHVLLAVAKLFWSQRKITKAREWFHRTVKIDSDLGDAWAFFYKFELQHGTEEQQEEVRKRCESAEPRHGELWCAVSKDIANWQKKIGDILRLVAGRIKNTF
UniProt Q9BTD8: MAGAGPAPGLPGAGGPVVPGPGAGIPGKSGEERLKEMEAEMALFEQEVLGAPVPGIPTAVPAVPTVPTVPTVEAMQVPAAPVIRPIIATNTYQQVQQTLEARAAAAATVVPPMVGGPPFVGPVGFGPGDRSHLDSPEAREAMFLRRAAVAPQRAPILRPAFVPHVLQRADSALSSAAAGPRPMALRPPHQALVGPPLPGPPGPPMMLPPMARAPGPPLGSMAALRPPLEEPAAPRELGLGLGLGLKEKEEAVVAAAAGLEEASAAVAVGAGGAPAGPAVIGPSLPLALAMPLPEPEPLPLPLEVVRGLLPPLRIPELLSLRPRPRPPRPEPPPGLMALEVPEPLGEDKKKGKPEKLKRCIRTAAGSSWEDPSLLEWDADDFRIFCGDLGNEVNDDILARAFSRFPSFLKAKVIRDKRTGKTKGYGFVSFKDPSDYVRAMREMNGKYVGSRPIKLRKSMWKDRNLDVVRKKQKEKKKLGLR
UniProt P02462: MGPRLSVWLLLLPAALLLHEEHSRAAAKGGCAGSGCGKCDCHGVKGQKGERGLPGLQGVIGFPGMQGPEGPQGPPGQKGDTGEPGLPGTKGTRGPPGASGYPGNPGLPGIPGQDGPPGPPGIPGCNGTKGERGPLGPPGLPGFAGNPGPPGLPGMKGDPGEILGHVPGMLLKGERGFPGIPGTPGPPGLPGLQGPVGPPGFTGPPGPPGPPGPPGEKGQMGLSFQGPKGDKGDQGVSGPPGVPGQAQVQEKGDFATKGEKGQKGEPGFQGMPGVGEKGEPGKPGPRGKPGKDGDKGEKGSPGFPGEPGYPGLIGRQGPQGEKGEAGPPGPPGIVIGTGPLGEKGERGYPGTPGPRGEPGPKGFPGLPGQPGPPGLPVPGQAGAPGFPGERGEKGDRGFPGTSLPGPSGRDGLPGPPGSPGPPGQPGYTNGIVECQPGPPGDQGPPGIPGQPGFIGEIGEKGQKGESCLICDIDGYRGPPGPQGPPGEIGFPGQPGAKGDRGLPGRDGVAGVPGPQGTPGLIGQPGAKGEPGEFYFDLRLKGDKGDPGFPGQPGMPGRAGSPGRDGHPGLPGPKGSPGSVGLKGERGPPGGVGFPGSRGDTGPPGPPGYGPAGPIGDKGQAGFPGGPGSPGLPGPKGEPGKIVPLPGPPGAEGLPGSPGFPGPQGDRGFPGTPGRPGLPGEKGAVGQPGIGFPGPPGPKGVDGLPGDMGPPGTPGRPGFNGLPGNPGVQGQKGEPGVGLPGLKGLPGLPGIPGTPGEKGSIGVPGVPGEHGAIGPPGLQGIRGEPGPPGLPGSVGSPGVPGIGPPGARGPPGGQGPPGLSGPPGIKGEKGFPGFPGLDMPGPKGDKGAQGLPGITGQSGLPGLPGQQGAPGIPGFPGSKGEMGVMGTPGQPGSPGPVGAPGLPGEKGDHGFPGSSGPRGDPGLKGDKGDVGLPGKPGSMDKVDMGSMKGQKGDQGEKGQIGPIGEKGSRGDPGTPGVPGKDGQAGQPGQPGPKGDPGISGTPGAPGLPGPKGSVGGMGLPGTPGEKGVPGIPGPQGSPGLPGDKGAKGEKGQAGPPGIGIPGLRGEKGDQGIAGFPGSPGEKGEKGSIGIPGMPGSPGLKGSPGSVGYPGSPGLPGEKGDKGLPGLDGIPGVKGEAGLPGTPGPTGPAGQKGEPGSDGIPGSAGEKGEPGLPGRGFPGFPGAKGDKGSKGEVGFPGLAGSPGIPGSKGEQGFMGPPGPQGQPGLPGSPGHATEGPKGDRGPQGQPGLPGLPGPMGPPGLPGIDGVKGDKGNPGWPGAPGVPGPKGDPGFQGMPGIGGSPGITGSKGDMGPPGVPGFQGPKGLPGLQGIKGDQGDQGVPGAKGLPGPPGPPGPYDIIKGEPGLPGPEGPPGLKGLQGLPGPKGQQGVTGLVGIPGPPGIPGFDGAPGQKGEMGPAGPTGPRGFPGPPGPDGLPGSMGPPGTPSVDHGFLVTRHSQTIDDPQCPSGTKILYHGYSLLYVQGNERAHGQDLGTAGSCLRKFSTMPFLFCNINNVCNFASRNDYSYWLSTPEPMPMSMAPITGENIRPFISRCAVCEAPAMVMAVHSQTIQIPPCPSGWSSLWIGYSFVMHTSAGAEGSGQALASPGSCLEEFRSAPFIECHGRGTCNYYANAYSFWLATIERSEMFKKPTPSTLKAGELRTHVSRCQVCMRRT
UniProt O15260: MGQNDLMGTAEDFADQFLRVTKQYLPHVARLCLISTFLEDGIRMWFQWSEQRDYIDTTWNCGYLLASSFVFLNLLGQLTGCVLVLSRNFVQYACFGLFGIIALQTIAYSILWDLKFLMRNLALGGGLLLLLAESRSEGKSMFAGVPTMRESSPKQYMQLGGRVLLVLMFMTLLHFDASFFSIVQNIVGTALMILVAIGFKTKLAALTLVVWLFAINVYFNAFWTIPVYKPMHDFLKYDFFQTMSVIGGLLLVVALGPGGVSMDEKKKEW
UniProt O94842: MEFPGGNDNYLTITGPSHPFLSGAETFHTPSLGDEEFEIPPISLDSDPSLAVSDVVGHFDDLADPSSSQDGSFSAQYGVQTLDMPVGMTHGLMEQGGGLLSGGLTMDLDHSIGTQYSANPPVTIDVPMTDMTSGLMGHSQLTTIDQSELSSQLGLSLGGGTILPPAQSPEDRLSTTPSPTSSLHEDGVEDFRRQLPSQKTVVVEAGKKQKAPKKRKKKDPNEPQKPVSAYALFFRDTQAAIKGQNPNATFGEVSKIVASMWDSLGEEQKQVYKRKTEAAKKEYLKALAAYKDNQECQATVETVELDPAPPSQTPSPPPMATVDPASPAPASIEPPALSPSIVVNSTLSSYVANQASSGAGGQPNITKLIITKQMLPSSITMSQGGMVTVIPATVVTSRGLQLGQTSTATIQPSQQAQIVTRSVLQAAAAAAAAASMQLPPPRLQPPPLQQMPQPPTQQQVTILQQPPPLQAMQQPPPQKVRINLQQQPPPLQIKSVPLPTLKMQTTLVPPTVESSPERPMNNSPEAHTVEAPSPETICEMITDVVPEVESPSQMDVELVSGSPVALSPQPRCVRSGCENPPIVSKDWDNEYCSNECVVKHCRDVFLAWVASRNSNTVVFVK
UniProt P46734: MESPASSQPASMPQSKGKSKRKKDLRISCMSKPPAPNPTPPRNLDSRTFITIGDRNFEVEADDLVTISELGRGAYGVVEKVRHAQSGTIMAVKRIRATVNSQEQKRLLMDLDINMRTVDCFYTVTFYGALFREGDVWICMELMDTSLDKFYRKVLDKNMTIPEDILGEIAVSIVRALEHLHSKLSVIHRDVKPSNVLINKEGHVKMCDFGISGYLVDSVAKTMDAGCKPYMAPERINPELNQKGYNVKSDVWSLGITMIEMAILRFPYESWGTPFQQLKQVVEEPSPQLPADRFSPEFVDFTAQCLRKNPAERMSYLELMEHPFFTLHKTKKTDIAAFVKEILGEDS
UniProt Q8TBM8: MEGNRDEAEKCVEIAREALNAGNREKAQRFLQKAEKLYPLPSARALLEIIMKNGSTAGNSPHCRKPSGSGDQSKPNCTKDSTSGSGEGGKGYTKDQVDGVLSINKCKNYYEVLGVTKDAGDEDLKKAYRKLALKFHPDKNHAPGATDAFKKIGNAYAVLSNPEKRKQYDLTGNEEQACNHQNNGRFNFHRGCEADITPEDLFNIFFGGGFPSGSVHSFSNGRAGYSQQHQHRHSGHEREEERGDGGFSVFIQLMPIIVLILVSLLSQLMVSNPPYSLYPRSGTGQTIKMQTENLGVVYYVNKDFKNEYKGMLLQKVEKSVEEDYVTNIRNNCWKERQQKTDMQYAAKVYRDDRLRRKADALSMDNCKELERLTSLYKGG
UniProt Q96AD5: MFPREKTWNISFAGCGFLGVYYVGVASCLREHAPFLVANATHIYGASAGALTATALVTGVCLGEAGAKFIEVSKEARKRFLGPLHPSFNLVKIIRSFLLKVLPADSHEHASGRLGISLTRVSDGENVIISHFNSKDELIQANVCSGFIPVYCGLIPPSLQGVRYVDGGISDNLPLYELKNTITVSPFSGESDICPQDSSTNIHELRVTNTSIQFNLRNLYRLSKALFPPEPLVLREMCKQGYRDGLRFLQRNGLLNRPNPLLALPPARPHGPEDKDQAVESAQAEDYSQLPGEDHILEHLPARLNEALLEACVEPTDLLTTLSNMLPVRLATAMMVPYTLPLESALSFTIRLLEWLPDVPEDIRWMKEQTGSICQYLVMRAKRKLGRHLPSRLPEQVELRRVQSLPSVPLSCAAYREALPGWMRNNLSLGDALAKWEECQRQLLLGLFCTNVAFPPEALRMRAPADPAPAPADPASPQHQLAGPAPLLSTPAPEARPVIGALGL
UniProt Q6P6C2: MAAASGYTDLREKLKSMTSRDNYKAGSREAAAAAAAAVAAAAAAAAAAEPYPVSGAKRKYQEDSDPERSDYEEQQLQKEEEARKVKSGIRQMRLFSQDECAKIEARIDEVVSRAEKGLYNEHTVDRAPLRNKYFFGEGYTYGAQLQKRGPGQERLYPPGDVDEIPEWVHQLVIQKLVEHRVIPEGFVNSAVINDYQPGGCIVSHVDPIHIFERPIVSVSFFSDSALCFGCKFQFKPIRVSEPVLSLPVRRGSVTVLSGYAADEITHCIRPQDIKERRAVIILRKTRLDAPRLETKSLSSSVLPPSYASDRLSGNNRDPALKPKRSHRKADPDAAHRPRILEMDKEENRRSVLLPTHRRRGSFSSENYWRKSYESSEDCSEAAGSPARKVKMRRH
UniProt Q14BN4: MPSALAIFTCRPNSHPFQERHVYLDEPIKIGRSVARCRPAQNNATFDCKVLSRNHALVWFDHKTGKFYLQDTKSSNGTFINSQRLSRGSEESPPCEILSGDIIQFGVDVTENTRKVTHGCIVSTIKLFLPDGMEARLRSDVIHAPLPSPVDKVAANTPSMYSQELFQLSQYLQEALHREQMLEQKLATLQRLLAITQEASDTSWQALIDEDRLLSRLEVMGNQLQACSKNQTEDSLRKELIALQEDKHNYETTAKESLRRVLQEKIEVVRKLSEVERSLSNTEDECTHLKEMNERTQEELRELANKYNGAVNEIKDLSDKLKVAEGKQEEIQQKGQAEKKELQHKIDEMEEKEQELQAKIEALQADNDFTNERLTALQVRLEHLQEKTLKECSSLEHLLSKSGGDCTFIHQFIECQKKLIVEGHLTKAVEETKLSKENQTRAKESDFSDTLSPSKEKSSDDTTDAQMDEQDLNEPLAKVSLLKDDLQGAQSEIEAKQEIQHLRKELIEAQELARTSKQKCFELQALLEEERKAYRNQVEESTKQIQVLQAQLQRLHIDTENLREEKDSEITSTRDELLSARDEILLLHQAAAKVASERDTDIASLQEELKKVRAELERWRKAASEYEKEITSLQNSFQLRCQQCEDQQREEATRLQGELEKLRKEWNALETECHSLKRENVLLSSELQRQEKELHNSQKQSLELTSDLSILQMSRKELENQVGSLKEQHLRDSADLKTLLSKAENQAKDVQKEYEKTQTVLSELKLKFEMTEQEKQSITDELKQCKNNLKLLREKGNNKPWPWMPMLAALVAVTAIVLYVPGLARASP

Compound: [O-][N+](C(C1=C(C(O)=C2)NC(C(C=C3)=CC=C3Cl)C4C1C=CC4)=C2Cl)=O
Assay: melting temperature shift (compound 7 minus DMSO); higher = compound stabilises the protein
Conditions: 10 µM
Protocol: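 Thermal proteome profiling (TMT mass spectrometry) in intact DAOY medulloblastoma cells or DAOY lysates treated with 10 µM compound 7 or DMSO, heated at 10 temperatures from 40.5 to 73.8 °C for 3 min. Melting curves were fitted with the Bioconductor TPP package, and the melting point difference between compound and vehicle is reported per protein (single curve per condition).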

[1] = system: DAOY cell lysate, treatment time: 20 min, 4 °C
[2] = system: intact DAOY cells, treatment time: 90 min, 37 °C

ELP6 (UniProt Q0PNE2)
melting temperature shift [1]: -0.793 °C
melting temperature shift [2]: 2.01 °C

BCAR1 (UniProt P56945)
melting temperature shift [1]: -0.954 °C
melting temperature shift [2]: 0.821 °C

KPNA1 (UniProt P52294)
melting temperature shift [1]: 0.407 °C
melting temperature shift [2]: -0.341 °C

CCDC53 (UniProt Q9Y3C0)
melting temperature shift [1]: -1.07 °C
melting temperature shift [2]: -1.23 °C

UniProt O94817
melting temperature shift [1]: 0.417 °C
melting temperature shift [2]: 0.309 °C

CRABP2 (UniProt P29373)
melting temperature shift [1]: -0.902 °C
melting temperature shift [2]: 1.01 °C

PRPF6 (UniProt O94906)
melting temperature shift [1]: -0.453 °C
melting temperature shift [2]: 0.318 °C

DSP (UniProt P15924)
melting temperature shift [1]: -0.925 °C

NT5C2 (UniProt P49902)
melting temperature shift [1]: -1.29 °C
melting temperature shift [2]: 0.0666 °C

LGALS1 (UniProt P09382)
melting temperature shift [1]: 0.74 °C
melting temperature shift [2]: 0.00859 °C

CHMP1A (UniProt Q9HD42)
melting temperature shift [1]: -2.77 °C
melting temperature shift [2]: 0.252 °C

RBM42 (UniProt Q9BTD8)
melting temperature shift [1]: 0.418 °C
melting temperature shift [2]: -1.25 °C

TRIM25 (UniProt Q14258)
melting temperature shift [1]: -0.148 °C
melting temperature shift [2]: -0.133 °C

CYR61 (UniProt O00622)
melting temperature shift [1]: 1.2 °C
melting temperature shift [2]: 1.3 °C

ACAA2 (UniProt P42765)
melting temperature shift [1]: 1.84 °C
melting temperature shift [2]: 0.814 °C

ORC4 (UniProt O43929)
melting temperature shift [1]: -0.335 °C
melting temperature shift [2]: -0.29 °C

UniProt Q9C0D2
melting temperature shift [2]: -0.684 °C

POLR3G (UniProt O15318)
melting temperature shift [2]: -0.0808 °C

DHRS1 (UniProt Q96LJ7)
melting temperature shift [2]: 9.31 °C

UniProt P02462
melting temperature shift [1]: 1.51 °C
melting temperature shift [2]: 0.581 °C

TRMT61A (UniProt Q96FX7)
melting temperature shift [1]: 0.244 °C
melting temperature shift [2]: -0.903 °C

SIRT5 (UniProt Q9NXA8)
melting temperature shift [1]: 0.59 °C
melting temperature shift [2]: 1.22 °C

NTMT1 (UniProt Q9BV86)
melting temperature shift [1]: -1.04 °C
melting temperature shift [2]: -0.102 °C

POLR3F (UniProt Q9H1D9)
melting temperature shift [1]: -0.97 °C
melting temperature shift [2]: -0.103 °C

TOLLIP (UniProt Q9H0E2)
melting temperature shift [1]: 0.204 °C
melting temperature shift [2]: 0.193 °C

HABP4 (UniProt Q5JVS0)
melting temperature shift [1]: -0.134 °C

ARPC5 (UniProt O15511)
melting temperature shift [1]: -1.03 °C
melting temperature shift [2]: 0.147 °C

EIF2B3 (UniProt Q9NR50)
melting temperature shift [1]: -0.18 °C
melting temperature shift [2]: -1.25 °C

BOLA3 (UniProt Q53S33)
melting temperature shift [1]: -1.62 °C
melting temperature shift [2]: -1.02 °C

KIAA0391 (UniProt O15091)
melting temperature shift [1]: -1.38 °C

PSMA6 (UniProt P60900)
melting temperature shift [1]: -0.5 °C
melting temperature shift [2]: -0.177 °C

UniProt Q9BXT5
melting temperature shift [2]: 0.569 °C

VWA8 (UniProt A3KMH1)
melting temperature shift [1]: -0.77 °C
melting temperature shift [2]: 0.286 °C

DNAJB11 (UniProt Q9UBS4)
melting temperature shift [1]: 1.34 °C
melting temperature shift [2]: 0.48 °C

UniProt P61077
melting temperature shift [2]: 1.06 °C

EXOSC5 (UniProt Q9NQT4)
melting temperature shift [1]: -0.53 °C

MTM1 (UniProt Q13496)
melting temperature shift [1]: 0.587 °C
melting temperature shift [2]: 0.62 °C

UniProt Q14699
melting temperature shift [1]: 1.87 °C
melting temperature shift [2]: -0.15 °C

NAPG (UniProt Q99747)
melting temperature shift [1]: 0.207 °C
melting temperature shift [2]: 0.494 °C

SURF4 (UniProt O15260)
melting temperature shift [1]: 1.63 °C
melting temperature shift [2]: -1.34 °C

TOX4 (UniProt O94842)
melting temperature shift [1]: -0.113 °C
melting temperature shift [2]: -1.56 °C

UniProt P28065
melting temperature shift [1]: -0.624 °C
melting temperature shift [2]: 0.0138 °C

UniProt P46734
melting temperature shift [1]: -0.38 °C
melting temperature shift [2]: -1.54 °C

LSM4 (UniProt Q9Y4Z0)
melting temperature shift [1]: -0.183 °C
melting temperature shift [2]: -0.775 °C

SLC25A28 (UniProt Q96A46)
melting temperature shift [1]: 1.41 °C
melting temperature shift [2]: -0.862 °C

DNAJB14 (UniProt Q8TBM8)
melting temperature shift [1]: 0.884 °C

PSMA5 (UniProt P28066)
melting temperature shift [1]: 0.56 °C
melting temperature shift [2]: 0.447 °C

UniProt Q96AD5
melting temperature shift [1]: -0.369 °C
melting temperature shift [2]: -0.675 °C

DDX19A (UniProt Q9NUU7)
melting temperature shift [1]: -0.54 °C
melting temperature shift [2]: -0.954 °C

ALKBH5 (UniProt Q6P6C2)
melting temperature shift [1]: 1.18 °C
melting temperature shift [2]: 2.69 °C

SLMAP (UniProt Q14BN4)
melting temperature shift [1]: 1.23 °C
melting temperature shift [2]: -0.0974 °C

RPS24 (UniProt P62847)
melting temperature shift [1]: -1.26 °C
melting temperature shift [2]: -0.464 °C

UBAC1 (UniProt Q9BSL1)
melting temperature shift [1]: -0.767 °C
melting temperature shift [2]: -0.46 °C

Repeats are few or missing, and single values can be far off.
